Laboratory results published in patent US20090297479A1.
Results are given in words; binding and its absence hold for the method and conditions named. Some results given as binding are weak or reduced against the parent protein; the word gives no strength. Tags and fused reporters may be left off the sequences shown.

How the values were obtained:
[1] = target: T1, DC-HIL-Fc (extracellular domain of mouse DC-HIL fused to the Fc portion of human IgG1) (mouse; human) (UniProt Q99P91); experiment: competition: DC-HIL-Fc pretreated with SD4-Fc at varying concentrations, then FACS on activated CD4+ T-cells
T1 sequence (looked up): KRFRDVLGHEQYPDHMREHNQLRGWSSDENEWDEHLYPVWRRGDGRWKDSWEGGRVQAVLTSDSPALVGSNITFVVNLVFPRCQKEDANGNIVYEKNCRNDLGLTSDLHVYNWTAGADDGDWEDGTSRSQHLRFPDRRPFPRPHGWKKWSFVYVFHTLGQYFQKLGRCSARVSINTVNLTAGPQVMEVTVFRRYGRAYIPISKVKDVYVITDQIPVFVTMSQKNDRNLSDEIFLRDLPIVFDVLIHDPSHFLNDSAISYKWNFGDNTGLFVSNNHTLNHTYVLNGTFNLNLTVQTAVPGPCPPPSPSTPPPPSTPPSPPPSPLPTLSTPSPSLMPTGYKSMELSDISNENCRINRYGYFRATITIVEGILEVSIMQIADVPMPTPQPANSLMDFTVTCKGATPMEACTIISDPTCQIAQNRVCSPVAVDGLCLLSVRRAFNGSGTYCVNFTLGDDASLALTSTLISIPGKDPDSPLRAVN

[2] = target: T2, DC-HIL, mouse, endogenous on APC / dendritic cells (mouse) (UniProt Q99P91); experiment: binding to dendritic cells (data not shown)
T2 sequence (looked up): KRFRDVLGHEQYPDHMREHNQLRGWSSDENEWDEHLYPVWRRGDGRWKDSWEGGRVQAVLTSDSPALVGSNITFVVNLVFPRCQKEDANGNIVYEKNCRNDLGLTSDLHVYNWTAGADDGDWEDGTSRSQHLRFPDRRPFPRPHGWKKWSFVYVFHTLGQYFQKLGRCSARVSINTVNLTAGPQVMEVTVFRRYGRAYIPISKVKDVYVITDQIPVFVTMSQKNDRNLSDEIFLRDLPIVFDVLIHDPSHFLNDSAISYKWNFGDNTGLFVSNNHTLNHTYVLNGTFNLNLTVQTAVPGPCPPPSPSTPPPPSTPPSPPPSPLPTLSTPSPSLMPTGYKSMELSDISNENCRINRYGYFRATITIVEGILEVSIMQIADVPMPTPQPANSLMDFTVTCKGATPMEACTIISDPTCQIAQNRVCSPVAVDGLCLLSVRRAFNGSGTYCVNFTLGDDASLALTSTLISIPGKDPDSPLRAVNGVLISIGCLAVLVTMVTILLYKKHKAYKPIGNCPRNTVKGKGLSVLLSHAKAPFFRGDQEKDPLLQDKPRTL

B1: SD4-Fc (extracellular domain of SD-4 fused to the Fc portion of human IgG1) (Fc fusion, UniProt O35988 24-145, looked up, not shown: a dimerising Fc or GST)
chain: ESIRETEVIDPQDLLEGRYFSGALPDDEDAGGSDDFELSGSGDLDDTEEPRPFPEVIEPLVPLDNHIPENAQPGIRVPSEPKELEENEVIPKRAPSDVGDDMSNKVSMSSTAQGSNIFERTE
B1 was tested, and the binding [1] was “binds” and the binding [2] was “binds”.
